Consider one compound from patent US6441027B1, “Method of regulating the female reproductive system through angiogenesis inhibitors” (Children's Medical Center Corporation, priority 1996, dated 2002).

A short description of the series: Serum progesterone enzyme immunoassay on E9. Type of series: in vivo, mouse.

With `CO[C@@H]1[C@H](OC(=O)NC(=O)CCl)CC[C@]2(CO2)[C@H]1[C@@]1(C)O[C@@H]1CC=C(C)C` [AGM-1470, O-chloroacetylcarbamoyl fumagillol], the “serum progesterone level on E9” value is 112%±23 % of control (30 mg/kg on E1, n=3, NS) and 161%±24 % of control (30 mg/kg on E7, n=3, NS).
